We go through 42 sequences from PMC7819943, “Rice protein-binding microarrays: a tool to detect cis-acting elements near promoter regions in rice”.

Protein sequences, listed by entry. Tags and fused reporters are not part of them.
UniProt Q0JBA9, entry or part of it: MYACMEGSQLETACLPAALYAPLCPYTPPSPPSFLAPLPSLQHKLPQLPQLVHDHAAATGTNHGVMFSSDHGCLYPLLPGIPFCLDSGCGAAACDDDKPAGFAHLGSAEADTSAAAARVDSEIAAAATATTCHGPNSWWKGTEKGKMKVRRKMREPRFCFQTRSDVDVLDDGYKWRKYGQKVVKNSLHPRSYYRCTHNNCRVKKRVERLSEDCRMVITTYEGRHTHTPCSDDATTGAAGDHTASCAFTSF

Some of the results follow.

For the experiment, the target named is OsWRKY34 (Oryza sativa, UniProt Q0JBA9 1-250). The experiment is described as follows: protein-binding microarray (RPBM); PBS, 2% BSA, 51.3 ng/ul salmon testes DNA, 50 uM zinc acetate, 200 nM TF, 25 C, 1 h; high values mean tight binding. Conditions: protein: recombinant; tags: N-terminal polyhistidine and DsRed monomer fusion (pET32a); label: CyDye5-dUTP incorporated in the synthesized complementary strand; 3' TTTTT single-stranded linker to array surface; dsDNA, one strand shown. In outline: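 The binding signal for each feature is its fluorescence intensity in arbitrary units. An Axon 4000B scanner was used to read a custom Agilent array that had been made double-stranded with Cy5-dUTP primer extension, blocked with 2% BSA, incubated at 25 °C for 1 h with 200 nM protein in PBS, 2% BSA, salmon testes DNA and 50 µM zinc acetate, and washed. The protein was an N-terminal polyhistidine–DsRed transcription factor fusion from E. coli BL21-CodonPlus, purified on Ni–NTA.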
“CTGCGGGAGGACGGGTCCGGGGCGGGGTCCGGGTCGGTGCCGGAGTCACCTAGTGCAG”: the binding signal is 9780 fluorescence intensity (a.u.).

“CCACGTCGTCGTTGATCTTTCCTCTTTCAGGCTTAGCCCTCGGAGTCACCTAGTGCAG”: the binding signal is 8930 fluorescence intensity (a.u.).

With “CATAGGGGTAGGGTTTGCTGTGTGCCTTCATAGGGTTGAGCGGAGTCACCTAGTGCAG”, the binding signal was 11700 fluorescence intensity (a.u.).

Consider “CTATAAGTACACTCGCGGGGCACGCTCTCTCTCTCTCCGACGGAGTCACCTAGTGCAG”, for which the binding signal was 10200 fluorescence intensity (a.u.).

Take “GTGTCCGACCATATTCGATCCTTATTCGTATCCGCAATAACGGAGTCACCTAGTGCAG”: the binding signal is 8340 fluorescence intensity (a.u.).

On to “CGTCGCCGCCGCCGGCGTCTTCTCCACCTCCTCCGCGCCGCGGAGTCACCTAGTGCAG”, for which the binding signal was 8030 fluorescence intensity (a.u.).

On to “AGGCGGCGGGGTGGCGGTGGTGGTGGTGGTGGTGGTGATGCGGAGTCACCTAGTGCAG”, for which the binding signal is 19000 fluorescence intensity (a.u.).

For “GTTTTATTGATGGGAAAAAAATTACTTTCCTGTTTTCTATCGGAGTCACCTAGTGCAG”, the binding signal is 8450 fluorescence intensity (a.u.).

Regarding “CGCAATTCTGGGCCTGCAACCACATCGCTTCGCCGCCGTACGGAGTCACCTAGTGCAG”, the binding signal was 9840 fluorescence intensity (a.u.).

For “ACTCGATTTCCTTTCTTGGCCTCTCCTCCTCTGACACAGGCGGAGTCACCTAGTGCAG”, the binding signal was 8550 fluorescence intensity (a.u.).

In the case of “GTACTTAAGAATATGCACTCATCCAAGCCATGTTCCATACCGGAGTCACCTAGTGCAG”, the binding signal is 9580 fluorescence intensity (a.u.).

Turning to “CGATTCCACCACTTGACACATCCATCGATCACTCCTCCCCCGGAGTCACCTAGTGCAG”, the binding signal is 8910 fluorescence intensity (a.u.).

On to “GTCTGAGTACACTTCTGAGGCTTCTTTGGTCGTTTTGGCCCGGAGTCACCTAGTGCAG”, for which the binding signal was 9790 fluorescence intensity (a.u.).

As for “ACCCTTCCGCTTTGCCCCTGCTGCCTACACCGCCCCACCGCGGAGTCACCTAGTGCAG”, the binding signal was 8300 fluorescence intensity (a.u.).

With “CCTCACGCCATCATGTACTGTGCTGCTTTGCCGTTTCGATCGGAGTCACCTAGTGCAG”, the binding signal is 10300 fluorescence intensity (a.u.).

For “CAACCGGTGGCCCGGTCCGGTATTTTCGTCCGGTTTTTTCCGGAGTCACCTAGTGCAG”, the binding signal is 9650 fluorescence intensity (a.u.).

For the sequence “CAGTCGATCCGCCCCACCGCTGTGTGTGTCTCAGTCCTCGCGGAGTCACCTAGTGCAG”, the binding signal was 8070 fluorescence intensity (a.u.).

Consider “ACTAATCATCTCAATTTCTCAAGCCCAACCGTATTGGCTCCGGAGTCACCTAGTGCAG”, for which the binding signal is 8520 fluorescence intensity (a.u.).

For the sequence “TTTTGCTATTTCGTTTATGTTCAAATGATGTATTTGTTTTCGGAGTCACCTAGTGCAG”, the binding signal is 9030 fluorescence intensity (a.u.).

Take “AGTAATAAACGTAACCTTTTCCTCCTATTTTATTTCACCTCGGAGTCACCTAGTGCAG”: the binding signal is 8290 fluorescence intensity (a.u.).

Turning to “CAAACATTATTTTAAAAGTCAACGGCGTCATCTATTTAAACGGAGTCACCTAGTGCAG”, the binding signal was 9430 fluorescence intensity (a.u.).

Turning to “ATGGTGTTTGATGCTCGTATGTTGCTATTCAATTTTGATGCGGAGTCACCTAGTGCAG”, the binding signal was 8400 fluorescence intensity (a.u.).

Take “TTTGACACCGTTGATTTTTTAATATGTGTTTGACCATTCGCGGAGTCACCTAGTGCAG”: the binding signal was 9260 fluorescence intensity (a.u.).

As to “TGTAGTGTCAAACATGCCTCGTCCACATATATGCACAAACCGGAGTCACCTAGTGCAG”, the binding signal is 9120 fluorescence intensity (a.u.).

“CATCAATACATCACACTACTCATGGAGGCATCACTATATTCGGAGTCACCTAGTGCAG”: the binding signal was 9240 fluorescence intensity (a.u.).

With “ATAAACCCACATCCTTAGCGCGGCCAGTTCGTCGTCTGAACGGAGTCACCTAGTGCAG”, the binding signal was 10500 fluorescence intensity (a.u.).

“CCTTAGCAGCCTCTTTATGGCAGTTTGACTGTTGACCCGTCGGAGTCACCTAGTGCAG”: the binding signal is 10200 fluorescence intensity (a.u.).

In the case of “CTAGATGGCCTTATTATCTCTACATCACACGTTATATCTACGGAGTCACCTAGTGCAG”, the binding signal was 8060 fluorescence intensity (a.u.).

Regarding “GGGGTATGTAAGGGATTGAGCAAAATTCAGGGTATAGAAGCGGAGTCACCTAGTGCAG”, the binding signal is 10700 fluorescence intensity (a.u.).

For “TTCAATTTCTCCCGTGCATGTCCTGTTTCAATTTCGTCCACGGAGTCACCTAGTGCAG”, the binding signal was 12500 fluorescence intensity (a.u.).

On to “TATGTATTCTTTTTTAAAAATCTTAGGTATTTTCATTTGACGGAGTCACCTAGTGCAG”, for which the binding signal is 8960 fluorescence intensity (a.u.).

Consider “AACCGTGTCTGTCTTATCATAATCACGTCTCAACTTTCTGCGGAGTCACCTAGTGCAG”, for which the binding signal is 8980 fluorescence intensity (a.u.).

As to “CCAGCGGTTCCCTTTCATCTATCCTCGTTTCTAAAATCACCGGAGTCACCTAGTGCAG”, the binding signal was 8920 fluorescence intensity (a.u.).

As for “GCAACCACCACCGTCTCGCCTGCATCGCTCGCCGCCGCATCGGAGTCACCTAGTGCAG”, the binding signal is 14600 fluorescence intensity (a.u.).

As to “CCGTTGACTTTTTAGTACGTGTTTGACCATTCGTCTTATTCGGAGTCACCTAGTGCAG”, the binding signal was 32300 ± 947 fluorescence intensity (a.u.).

On to “TACAGCATTAGTACGTCTTAATTGCAACTGTCGGTCAACTCGGAGTCACCTAGTGCAG”, for which the binding signal is 8430 fluorescence intensity (a.u.).

For “GCTTATTGTTTCTTTGTTTAAATCAGATAACATGTCTTCTCGGAGTCACCTAGTGCAG”, the binding signal was 10500 fluorescence intensity (a.u.).

Regarding “TTTCCCTTGGTTTGATGCGGCGGCGGTGGTGAGGGTGGGACGGAGTCACCTAGTGCAG”, the binding signal was 8510 fluorescence intensity (a.u.).

For the sequence “TCGGCGTCCCGTCTGTTCGCTACGCACGCACTCACTCACTCGGAGTCACCTAGTGCAG”, the binding signal was 8420 fluorescence intensity (a.u.).

With “CAGGTCTTAGTTTTATGCTTGATAATTGAGGGATTATTTTCGGAGTCACCTAGTGCAG”, the binding signal was 8650 fluorescence intensity (a.u.).

As for “GCCTAGGGTTAGGGTTCGAGACTGGGAAATCGGGTTGGGGCGGAGTCACCTAGTGCAG”, the binding signal is 8330 fluorescence intensity (a.u.).

With “GGCGGGGAATATTGTCCAATCCAGCGCGCCTGTAGGCGGACGGAGTCACCTAGTGCAG”, the binding signal was 9080 fluorescence intensity (a.u.).
